In US20210155697A1 (UNITY BIOTECHNOLOGY, published 2021):
No constants are given. Whether binding was seen depends on the method and setting. Some results given as binding are weak or reduced against the parent protein; the word gives no strength.

Amino acid sequences for entries named in this document (tags omitted). A change or cut given only in a name is not applied to a line headed by its entry.
UniProt Q02763: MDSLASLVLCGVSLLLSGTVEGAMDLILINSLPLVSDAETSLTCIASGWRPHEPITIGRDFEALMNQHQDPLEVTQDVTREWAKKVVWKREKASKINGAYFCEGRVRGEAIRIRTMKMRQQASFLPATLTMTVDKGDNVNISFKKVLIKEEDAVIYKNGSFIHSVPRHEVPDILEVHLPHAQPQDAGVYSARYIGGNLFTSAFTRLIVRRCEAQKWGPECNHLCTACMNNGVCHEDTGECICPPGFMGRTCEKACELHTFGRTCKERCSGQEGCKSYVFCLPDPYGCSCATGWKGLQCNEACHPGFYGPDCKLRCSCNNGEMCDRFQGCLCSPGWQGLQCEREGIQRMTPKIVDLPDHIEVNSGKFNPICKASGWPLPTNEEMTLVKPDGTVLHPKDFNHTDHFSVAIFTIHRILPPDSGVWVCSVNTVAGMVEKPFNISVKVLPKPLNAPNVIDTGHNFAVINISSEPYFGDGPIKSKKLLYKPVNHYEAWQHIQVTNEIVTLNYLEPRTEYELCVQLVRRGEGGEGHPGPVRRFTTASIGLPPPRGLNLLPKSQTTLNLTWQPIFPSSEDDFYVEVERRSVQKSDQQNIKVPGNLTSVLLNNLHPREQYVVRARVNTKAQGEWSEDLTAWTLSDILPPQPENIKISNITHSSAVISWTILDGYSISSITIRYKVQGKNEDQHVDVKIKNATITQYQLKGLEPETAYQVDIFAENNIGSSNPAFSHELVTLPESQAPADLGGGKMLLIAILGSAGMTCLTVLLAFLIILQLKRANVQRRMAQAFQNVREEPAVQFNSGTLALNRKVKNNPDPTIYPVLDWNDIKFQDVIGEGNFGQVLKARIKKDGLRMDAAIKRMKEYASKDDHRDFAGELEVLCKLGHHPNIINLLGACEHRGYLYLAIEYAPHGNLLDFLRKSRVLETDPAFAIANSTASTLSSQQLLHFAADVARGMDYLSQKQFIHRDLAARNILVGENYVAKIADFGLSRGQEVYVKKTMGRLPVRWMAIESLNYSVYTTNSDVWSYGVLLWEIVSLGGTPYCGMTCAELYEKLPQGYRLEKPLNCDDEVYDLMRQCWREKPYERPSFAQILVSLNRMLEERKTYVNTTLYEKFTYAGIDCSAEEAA

B1: human anti-Tie2 antibody #2 (antibody, V domains shown)
VH: DVQLVESGGGVVRPGESLRLSCAASGFSFINFAMTWVRQAPGEGPEWVSLISDDGRGNRPYYADSVKGRFTISRDNSKNILYLQMNSLRVEDTATYYCAKVSWDVFFDYWGLGTVVTVSS
VL: EIVLTQSPGTVSLSPGERVTLSCRASQPIDVYLAWYQQKPGQAPRLLIYGANRRAIDIPDRFSGSGSGTEFTLTINSLQNEDFAVYFCQQYMTWPPVTFGGGTKVEIK
notes: also called Ab #2; Antibody Clone # 2
B2: human anti-Tie2 antibody #1 (antibody, V domains shown)
VH: DVQLVESGGGVVRPGESLRLSCAASGFTFSSYAMSWVRQAPGEGLEWVARISDYTIYYADSVKGRFTISRDNSKNTLYLQMNSLRAEDTAVYYCAKSGPKSGKYWNNFFDSWGLGTLVTVSS
VL: EIVLTQSPGTLSVSPGERATLTCRASQSVKTDLAWYQQKPGQAPRLLIYGATTRATGIPARFSGSGSGTEFTLTITNLQSEDFAVYYCQQYYVWPPLTFGGGTKVEIK
notes: also called Ab #1; Antibody Clone # 1
B3: human anti-Tie2 antibody #3 (antibody, V domains shown)
VH: DVQLVESGGGVVRPGESLRLSCTASGFTFDSYGMSWVRQAPGKGLEWVSSINVGDNTYYADSVRGRFIISRDSSRNTLYLQMNSLTAEDTAVYYCANWNSFFDYWGLGTLVTVSS
VL: EIVLTQSPGTLSLSPGEIATLSCRASQNVRSDLAWYQQKPGQAPRLLIYDASNRATGIPDRFSGSGSGTDFTLTISSLQSEDFAVYYCQQYSNWPPLTFGGGTKVEIK
notes: also called Ab #3; Antibody Clone # 3

The binders below were run against recombinant his-tagged Tie2 ECD (Homo sapiens (Human)) (UniProt Q02763) (assay: BLI, his-tagged Tie2 ECD (100 nM) on Ni-NTA biosensor, antibody at 100 nM).

binding, binds:
B1
B2
B3
